# Measurements: PubChem BioAssay AID624297 (National Center for Advancing Translational Sciences (NCATS), 2012)
# In all, about 340,000 compounds went through this assay and about 6,200 (1.8%) were called active. The inconclusive results got no clear call from the source; some entries with a clear call stand among them for comparison. Calls follow the shape of the dose curve; as a rule, active = well fitted activation curve with a large enough effect; inconclusive = small, poorly fitted or top-dose-only effect; inactive = no such curve, though single readings can be large or run the other way. A potency beside an inconclusive call is a rough fit, not a confirmed value.
# Assay: A quantitative high throughput screen for small molecules that induce DNA re-replication in SW480 colon adenocarcinoma cells. Also: nearly all actives have a fitted effect of over 55% in size. As to re-replication activation: % of control where 0% means no effect.
# Settings: Hoechst DNA content imaging, 48 h; re-replication activation: at 46.1 µM (top of the series)
# Method in brief: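 Treated cells incubate 48 hr (37 C, 5% CO2), are stained 40 min with Hoechst, and nuclear fluorescence is enumerated; a rise in nuclei with high DNA signal marks re-replication.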
# Potency is read from the fitted curve at half-maximal effect.
SMILES,Potency,re-replication activation
C=CCOC(=O)C(C#N)c1nc2ccccc2nc1N1CCN(c2ccccc2OC)CC1 (configuration not stated),inactive,–
COc1cc(OC)c(C2=Nc3ccc(Br)cc3C(c3ccccc3)N2CC(=O)NN)cc1OC (configuration not stated),inactive,–
O=C(Nc1ccccc1)N1CCN(c2cccc(C(F)(F)F)c2)CC1,inactive,–
CN(C)c1ccc(/C=N/N(CCC(=O)NC(C)(C)C)C2=NS(=O)(=O)c3ccccc32)cc1,active: 18.4 µM,–
CCn1c(O)c(N=NC(=O)c2cccnc2)c2cc(Br)ccc21,"inconclusive: 7.31 µM [activator, single point]",–
Cc1ccc2c(c1)N(CC(=O)NC1CCCC(C)C1C)C(=O)c1cccnc1O2 (configuration not stated),inactive,–
Cc1nc2ccccc2n1CCc1nc2c3ccccc3nc(SCC(=O)NCc3ccco3)n2n1,"inconclusive: 18.4 µM [activator, single point]",–
CSc1nc(SCC(=O)NCc2ccco2)c2c3c(sc2n1)COC(C)(C)C3,"inconclusive: 29.1 µM [activator, single point]",–
O=C(Nc1ccc(N2CCN(C(=O)c3cccs3)CC2)cc1)c1ccc(Br)o1,"inconclusive: 23.1 µM [activator, single point]",–
O=C1c2ccccc2CN1c1ccccc1,inactive,–
O=C(Nc1cc(-c2nc3ncccc3o2)ccc1Cl)c1ccc([N+](=O)[O-])o1,active: 1.3 µM,–
COc1cc2c(O)c3c(c(-c4ccc5c(c4)OCO5)c2cc1OC)C(=O)OC3,active: 23.1 µM,–
O=C(COC(=O)c1nc(Cl)c(Cl)c(Cl)c1Cl)c1ccc[nH]1,"inconclusive: 29.1 µM [activator, single point]",–
CC(C)=N/N=c1\scc(C)n1Cc1ccco1,inactive,–
Cc1ccc(S(=O)(=O)Nc2nc3c(s2)C(=O)CC(C)(C)C3)cc1,"inconclusive: 6.51 µM [activator, single point]",–
CCCCCCCCCCOC(=O)Cn1c(COc2ccccc2OC)[n+](C)c2ccccc21,"inconclusive: 29.1 µM [activator, single point]",–
COc1ccc2c(c1OC)c(=O)n1c3ccc(OC(C)C(=O)NCCN4CCOCC4)cc3c3ccnc2c31 (configuration not stated),"inconclusive: 32.6 µM [activator, partial curve, poor fit]",–
c1ccc(CN2CCOCCOCCOCCOCC2)cc1,"inconclusive: 0.164 µM [activator, full curve, poor fit]",–
O=C(NCC1CCCO1)c1cc2n(n1)C(C(F)(F)F)CC(c1ccc(Br)cc1)N2 (configuration not stated),inactive,–
CCCCCCC[C@@H](C/C=C/CCC(=O)N(C)C/C(=C/Cl)C/C(=C\C(=O)N1CC(OC)=CC1=O)OC)OC,"inconclusive: 18.4 µM [activator, single point]",–
FC(F)(F)c1ccc(Cl)c(NC(=S)N/N=C/c2ccccc2Cl)c1,inactive,–
COc1ccc(NC(=O)c2ccco2)cc1NC(=O)c1cccc(F)c1,inactive,–
CC(Oc1ccc2c3c(c(=O)oc2c1)CCC3)C(=O)NCCCn1ccnc1 (configuration not stated),"inconclusive: 20.6 µM [activator, single point]",–
N#Cc1c(NC(=O)CSc2ncn[nH]2)sc2c1CCCCC2,"inconclusive: 29.1 µM [activator, partial curve, poor fit]",–

# Full records as entered above. Order of values: Potency | re-replication activation
# O=C1c2ccccc2CN1c1ccccc1 is entered as inactive | –
# COc1ccc2c(c1OC)c(=O)n1c3ccc(OC(C)C(=O)NCCN4CCOCC4)cc3c3ccnc2c31 (configuration not stated) is entered as inconclusive: 32.6 µM [activator, partial curve, poor fit] | –
# FC(F)(F)c1ccc(Cl)c(NC(=S)N/N=C/c2ccccc2Cl)c1 is entered as inactive | –

# Additional structures:

SMILES,Potency,re-replication activation
Cc1[nH]c2ccccc2c1/C=C/c1cc[n+](C)cc1,inactive,–
CCCCN1CNC(=S)N(Cc2ccccc2)C1,"inconclusive: 0.116 µM [activator, full curve, poor fit]",–
O=C(C1CCN(S(=O)(=O)c2ccccc2)CC1)N1CCN(c2ccccc2)CC1,"inconclusive: 2.91 µM [activator, full curve, poor fit]",–
CCCOc1ccc(C(=O)N/N=C/c2c[nH]c3ccc(Br)cc23)cc1,"inconclusive: 7.08 µM [activator, partial curve, poor fit]",–
Cc1csc(NC(=O)CSc2nc3[nH]c(=O)cc(O)c3s2)n1,"inconclusive: 0.651 µM [activator, full curve, poor fit]",–
O=S(=O)(c1cccc2nonc12)N1CCCCC1,inactive,–
CCCC(=O)NC(c1ccc2c(c1)OCO2)c1cc(Cl)c2cccnc2c1O (configuration not stated),"inconclusive: 3.26 µM [activator, full curve]",–
O=C(Cc1ccccc1)Nc1nccs1,inactive,–
COc1cccc(OCc2cc(/C=N/NC(=O)c3ccn[nH]3)ccc2OC)c1,"inconclusive: 20.6 µM [activator, single point]",–
N/C(=N\OC(=O)N1CCOCC1)c1ccccc1,"inconclusive: 29.1 µM [activator, single point]",–
Cc1nc(N2CCN(Cc3ccc4c(c3)OCO4)CC2)c2oc3ccccc3c2n1,"inconclusive: 29.1 µM [activator, single point]",–
Cc1cc(=O)oc2ccc(OCc3ccccc3)cc12,inactive,–
CCN(C[C@H]1N[C@@](Cc2ccccc2)(C(=O)OC)[C@H]2C(=O)N(Cc3ccccc3)C(=O)[C@@H]12)S(=O)(=O)c1ccc(C(C)(C)C)cc1,"inconclusive: 0.146 µM [activator, full curve, poor fit]",–
COCCNC(=O)C(=O)Nc1ccc2c(c1)N(S(=O)(=O)c1cccs1)CCC2,active: 2.59 µM,–
Cc1cccc(NC(=O)C2CCCN(c3cnccn3)C2)c1 (configuration not stated),–,inconclusive: 114% [activator]
Cc1ccc(S(=O)(=O)N2CCCc3ccccc32)cc1C,inactive,–
CC(C)CC1NC(=S)N(C2CCCCC2)C1=O (configuration not stated),"inconclusive: 29.1 µM [activator, single point]",–
O=C(NCC(c1cccs1)N1CCOCC1)c1ccco1 (configuration not stated),"inconclusive: 29.1 µM [activator, single point]",–
CCCCN1C(=O)C(=O)N(CC(=O)Nc2sc(CC)cc2C(=O)OCC)C1=O,"inconclusive: 29.1 µM [activator, partial curve, poor fit]",–
CCCCCCCCCCS(=O)(=O)N/N=C/c1ccccc1OC,inactive,–
O=C(Nc1nc2c(s1)CCCC2)C1CCCN1C(=O)c1cccs1 (configuration not stated),inactive,–
COCCNC(=O)c1c(N)n(CCCn2ccnc2)c2nc3ccccc3nc12,"inconclusive: 20.6 µM [activator, single point]",–
O=C(COc1ccc2c(-c3ccccc3)cc(=O)oc2c1)NCc1cccs1,inactive,–
COC(=O)[C@H](C)NC(=O)NCc1ccc(F)cc1,inactive,–

# Copied from the list:
# Value of `COc1cccc(OCc2cc(/C=N/NC(=O)c3ccn[nH]3)ccc2OC)c1` under Potency: inconclusive: 20.6 µM [activator, single point]
# Value of `COc1cc2c(O)c3c(c(-c4ccc5c(c4)OCO5)c2cc1OC)C(=O)OC3` under Potency: active: 23.1 µM

# (listing goes on)

SMILES,Potency,re-replication activation
CSc1ccccc1C(=O)Nc1cccc(C(C)=O)c1,"inconclusive: 29.1 µM [activator, single point]",–
O=C(CSc1cccc[n+]1[O-])c1ccccc1Br,"inconclusive: 4.61 µM [activator, full curve]",–
O=C1CC(/C=C/c2ccccn2)=Nc2ccccc2N1,"inconclusive: 23.1 µM [activator, partial curve, poor fit]",–
O=C(CO/N=C1\CCCc2nonc21)Nc1ccc(Br)cc1,inactive,–
Cc1ccc(-c2cc(C(F)(F)F)n3nc(C(=O)NCCCn4ccnc4)cc3n2)cc1C,"inconclusive: 16.4 µM [activator, single point]",–
COc1ccc(C(=O)O/N=C(\N)Cc2ccc(Cl)cc2)cc1OC,"inconclusive: 29.1 µM [activator, single point]",–
CS(=O)(=O)c1ccc(NC(=O)c2ccccc2-n2cnnn2)cc1,inactive,–
Cc1ccc2nc(Cl)c(C3CC(c4cccs4)=NN3S(C)(=O)=O)cc2c1 (configuration not stated),"inconclusive: 18.4 µM [activator, single point]",–
O=C(c1ccco1)N1CCN(Cc2nc3cc(Cl)ccc3c(=O)[nH]2)CC1,inactive,–
Oc1ccc(Nc2nc(N3CCCC3)c3ccccc3n2)cc1,"inconclusive: 20.6 µM [activator, single point]",–
Cc1cc(=O)[nH]c2sc(C(=O)N3c4ccccc4CC3C)c(N)c12 (configuration not stated),inactive,–
COc1ccc(C(=O)N/N=C/c2ccc3cccc(O)c3n2)cc1,"inconclusive: 18.4 µM [activator, single point]",–
CSC1=N/C(=C\c2ccc(Cl)cc2)C(=O)N1N(C)C,"inconclusive: 7.31 µM [activator, partial curve, poor fit]",–
CC1=CC(C)C(/C=N/N=C(N)N)C(C)C1 (configuration not stated),"inconclusive: 29.1 µM [activator, single point]",–
COc1ccc(N(C(=O)c2snc(C(N)=O)c2N)C(C(=O)NC2CCCCC2)c2ccc(F)cc2)c(OC)c1 (configuration not stated),"inconclusive: 6.51 µM [activator, single point]",–
Oc1ccccc1N1CCN(c2ncnc3scc(-c4ccccc4)c23)CC1,"inconclusive: 23.1 µM [activator, single point]",–
CC(C)CNS(=O)(=O)c1cc(C(=O)OCC(=O)c2ccc3c(c2)OCCO3)c(Cl)cc1Cl,inactive,–
CCCn1cnc2c(SCc3ccccc3Cl)nc(N)nc21,inactive,–
N=c1sccn1CC(=O)Nc1ccc(S(=O)(=O)N2CCOCC2)cc1,"inconclusive: 0.0052 µM [activator, full curve, poor fit]",–
Cc1cc(C)c(C)c(OCCOCCNCc2ccccc2)c1,"inconclusive: 1.46 µM [activator, full curve, poor fit]",–
C/C(=N/NC(N)=S)c1ccc(Br)s1,"inconclusive: 18.4 µM [activator, single point]",–
Cc1ccc(N(CN2C(=O)C3C4CCC(C4)C3C2=O)C(=O)c2ccco2)cc1 (configuration not stated),"inconclusive: 0.184 µM [activator, full curve, poor fit]",–
O=C(CSc1nnc2c3ccccc3c3ccccc3c2n1)Nc1ccccc1F,inactive,–
CCC(=O)N1CCc2cc(Br)cc(S(=O)(=O)N(C)c3ccc(OC)cc3OC)c21,"inconclusive: 29.1 µM [activator, single point]",–
